Record: PubChem BioAssay AID1259308 (NCATS, 2017)
Here is one part, drawn at random, of about 59,000 reagents tested. Over the whole deposit, about 1,510 (2.6%) were called active. 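Calls use total luciferase alone and ignore viability, so some active siRNAs may act by altering cell number.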 Entries without a mark were called inactive. Not all columns of the deposit are shown.

Screen: 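Candidate targets for better recombinant protein yield in mammalian cells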 (primary screen)
System: human HEK293 embryonic kidney cells stably expressing firefly luciferase (HEK-CMV-Luc2-Hygro)
Reagents: single siRNA against human genes, 0.8 pmol siRNA per well
Time to read-out: 72 h
Read-out: 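Luciferase light (ONE-Glo) measured on one replicate plate set and viability (CellTiter-Glo) on the other, scaled to a negative control siRNA, with robust z-scores and luciferase per cell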
Scale: total luciferase, z-score: higher = more reporter protein produced
Call rule: 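Active when the median/MAD z-score for overall luciferase is greater than 3; a gene was taken forward for validation with new siRNAs if at least two of its three siRNAs passed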
Meaning of the calls: active = raised luciferase; inactive = no rise

{"gene": "ADSL (GeneID 158)", "PubChem SID": "SID160715169", "total luciferase, z-score": -0.193}
{"gene": "ADSL (GeneID 158)", "PubChem SID": "SID160715180", "total luciferase, z-score": 0.0463}
{"gene": "ADSL (GeneID 158)", "PubChem SID": "SID160715190", "total luciferase, z-score": -0.0596}
{"gene": "DEFB109B (GeneID 641517)", "PubChem SID": "SID160768418", "total luciferase, z-score": 0.0307}
{"gene": "DEFB109B (GeneID 641517)", "PubChem SID": "SID160768419", "total luciferase, z-score": -1.51}
{"gene": "DEFB109B (GeneID 641517)", "PubChem SID": "SID160768420", "total luciferase, z-score": -0.797}
{"gene": "ERAL1 (GeneID 26284)", "PubChem SID": "SID160737911", "total luciferase, z-score": 0.125}
{"gene": "ERAL1 (GeneID 26284)", "PubChem SID": "SID160737912", "total luciferase, z-score": 1.19}
{"gene": "ERAL1 (GeneID 26284)", "PubChem SID": "SID160737913", "total luciferase, z-score": -1.81}
{"gene": "WLS (GeneID 79971)", "PubChem SID": "SID160749880", "total luciferase, z-score": 0.32}
{"gene": "WLS (GeneID 79971)", "PubChem SID": "SID160749881", "total luciferase, z-score": -0.355}
{"gene": "WLS (GeneID 79971)", "PubChem SID": "SID160749882", "total luciferase, z-score": -0.463}
{"gene": "ZFP37 (GeneID 7539)", "PubChem SID": "SID160718953", "total luciferase, z-score": -0.145}
{"gene": "ZFP37 (GeneID 7539)", "PubChem SID": "SID160718954", "total luciferase, z-score": -1.75}
{"gene": "ZFP37 (GeneID 7539)", "PubChem SID": "SID160718955", "total luciferase, z-score": 0.787}
{"gene": "FASTKD5 (GeneID 60493)", "PubChem SID": "SID160747106", "total luciferase, z-score": 0.39}
{"gene": "FASTKD5 (GeneID 60493)", "PubChem SID": "SID160747107", "total luciferase, z-score": 0.153}
{"gene": "FASTKD5 (GeneID 60493)", "PubChem SID": "SID160747108", "total luciferase, z-score": -0.319}
{"gene": "H1-2 (GeneID 3006)", "PubChem SID": "SID160723828", "total luciferase, z-score": -0.459}
{"gene": "H1-2 (GeneID 3006)", "PubChem SID": "SID160723829", "total luciferase, z-score": "3.08 (active)"}
{"gene": "H1-2 (GeneID 3006)", "PubChem SID": "SID160774790", "total luciferase, z-score": -0.469}
{"gene": "DPY19L4 (GeneID 286148)", "PubChem SID": "SID160763792", "total luciferase, z-score": 1.36}
{"gene": "DPY19L4 (GeneID 286148)", "PubChem SID": "SID160763793", "total luciferase, z-score": -1.01}
{"gene": "DPY19L4 (GeneID 286148)", "PubChem SID": "SID160763794", "total luciferase, z-score": 0.913}
{"gene": "RINL (GeneID 126432)", "PubChem SID": "SID160756490", "total luciferase, z-score": 1.92}
{"gene": "RINL (GeneID 126432)", "PubChem SID": "SID160756491", "total luciferase, z-score": -0.107}
{"gene": "RINL (GeneID 126432)", "PubChem SID": "SID160756493", "total luciferase, z-score": -1.6}
{"gene": "AOPEP (GeneID 84909)", "PubChem SID": "SID160752912", "total luciferase, z-score": -0.496}
{"gene": "AOPEP (GeneID 84909)", "PubChem SID": "SID160752913", "total luciferase, z-score": 0.107}
{"gene": "AOPEP (GeneID 84909)", "PubChem SID": "SID160752914", "total luciferase, z-score": 0.417}
{"gene": "ARL2 (GeneID 402)", "PubChem SID": "SID160720103", "total luciferase, z-score": -0.579}
{"gene": "ARL2 (GeneID 402)", "PubChem SID": "SID160720113", "total luciferase, z-score": 1.49}
{"gene": "ARL2 (GeneID 402)", "PubChem SID": "SID160731208", "total luciferase, z-score": -1.33}
{"gene": "SLFN13 (GeneID 146857)", "PubChem SID": "SID160758436", "total luciferase, z-score": -1.97}
{"gene": "SLFN13 (GeneID 146857)", "PubChem SID": "SID160758437", "total luciferase, z-score": -0.324}
{"gene": "SLFN13 (GeneID 146857)", "PubChem SID": "SID160758438", "total luciferase, z-score": 0.163}
{"gene": "NCEH1 (GeneID 57552)", "PubChem SID": "SID160746253", "total luciferase, z-score": 0.161}
{"gene": "NCEH1 (GeneID 57552)", "PubChem SID": "SID160746254", "total luciferase, z-score": -0.393}
{"gene": "NCEH1 (GeneID 57552)", "PubChem SID": "SID160746255", "total luciferase, z-score": -0.823}
{"gene": "XYLT2 (GeneID 64132)", "PubChem SID": "SID160731719", "total luciferase, z-score": -1.69}
{"gene": "XYLT2 (GeneID 64132)", "PubChem SID": "SID160747513", "total luciferase, z-score": -0.0687}
{"gene": "XYLT2 (GeneID 64132)", "PubChem SID": "SID160747514", "total luciferase, z-score": -0.566}
